Test results: the supplement of paper PMC12819154, “High-throughput peptide-centric local stability assay extends protein–ligand identification to membrane proteins, tissues and bacteria” (Nature Structural & Molecular Biology, 2025)
The other results are listed elsewhere or left out. Small differences around the control level are noise.

Sequences of proteins named here, by UniProt entry; tags and fusion partners are left off. A change or cut given only in a name is not applied to a line headed by its entry.
UniProt Q5VWJ9: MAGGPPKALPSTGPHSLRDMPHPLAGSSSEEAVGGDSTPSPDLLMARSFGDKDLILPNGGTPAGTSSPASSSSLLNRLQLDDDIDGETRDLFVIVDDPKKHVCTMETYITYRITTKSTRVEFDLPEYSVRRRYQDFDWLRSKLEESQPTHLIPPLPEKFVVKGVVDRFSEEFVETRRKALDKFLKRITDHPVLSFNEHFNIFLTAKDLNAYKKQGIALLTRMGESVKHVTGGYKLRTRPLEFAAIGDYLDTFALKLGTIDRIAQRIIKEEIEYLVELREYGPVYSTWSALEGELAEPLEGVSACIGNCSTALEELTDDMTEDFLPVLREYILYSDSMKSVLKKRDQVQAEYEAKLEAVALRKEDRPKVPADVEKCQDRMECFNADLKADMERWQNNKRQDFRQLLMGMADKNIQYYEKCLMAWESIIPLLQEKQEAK
UniProt Q69YI7: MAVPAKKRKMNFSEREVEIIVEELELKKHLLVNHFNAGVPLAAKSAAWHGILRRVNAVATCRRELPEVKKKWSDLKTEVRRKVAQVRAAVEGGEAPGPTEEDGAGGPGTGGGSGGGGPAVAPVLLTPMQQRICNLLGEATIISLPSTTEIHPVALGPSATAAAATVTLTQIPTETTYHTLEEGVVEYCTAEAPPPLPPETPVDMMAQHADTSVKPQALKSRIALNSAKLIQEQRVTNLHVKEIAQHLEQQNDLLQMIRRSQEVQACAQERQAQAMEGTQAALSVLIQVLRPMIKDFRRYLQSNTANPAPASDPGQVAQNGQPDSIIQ
UniProt Q5XKK7: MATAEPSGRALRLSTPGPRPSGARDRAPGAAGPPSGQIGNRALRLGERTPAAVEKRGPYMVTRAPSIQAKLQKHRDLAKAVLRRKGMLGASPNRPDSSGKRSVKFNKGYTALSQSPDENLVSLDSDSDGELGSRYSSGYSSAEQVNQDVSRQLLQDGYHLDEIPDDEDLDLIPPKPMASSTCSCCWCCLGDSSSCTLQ
UniProt Q6NSJ2: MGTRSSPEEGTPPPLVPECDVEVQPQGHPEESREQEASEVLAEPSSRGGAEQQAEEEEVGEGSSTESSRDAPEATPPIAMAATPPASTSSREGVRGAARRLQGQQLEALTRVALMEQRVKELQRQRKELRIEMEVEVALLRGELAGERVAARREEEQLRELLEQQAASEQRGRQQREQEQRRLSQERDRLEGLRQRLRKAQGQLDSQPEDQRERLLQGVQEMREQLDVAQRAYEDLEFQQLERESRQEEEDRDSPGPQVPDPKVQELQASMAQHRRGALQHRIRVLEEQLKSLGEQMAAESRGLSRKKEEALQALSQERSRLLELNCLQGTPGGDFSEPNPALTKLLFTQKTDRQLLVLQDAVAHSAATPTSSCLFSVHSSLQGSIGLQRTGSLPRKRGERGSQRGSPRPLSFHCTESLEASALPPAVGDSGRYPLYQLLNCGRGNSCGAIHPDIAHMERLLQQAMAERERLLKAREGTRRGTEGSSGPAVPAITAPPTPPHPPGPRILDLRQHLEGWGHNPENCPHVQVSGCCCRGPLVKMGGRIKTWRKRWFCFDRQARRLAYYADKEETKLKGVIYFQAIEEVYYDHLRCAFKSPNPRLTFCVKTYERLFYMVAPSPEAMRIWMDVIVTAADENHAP
UniProt Q641Q2, whole entry: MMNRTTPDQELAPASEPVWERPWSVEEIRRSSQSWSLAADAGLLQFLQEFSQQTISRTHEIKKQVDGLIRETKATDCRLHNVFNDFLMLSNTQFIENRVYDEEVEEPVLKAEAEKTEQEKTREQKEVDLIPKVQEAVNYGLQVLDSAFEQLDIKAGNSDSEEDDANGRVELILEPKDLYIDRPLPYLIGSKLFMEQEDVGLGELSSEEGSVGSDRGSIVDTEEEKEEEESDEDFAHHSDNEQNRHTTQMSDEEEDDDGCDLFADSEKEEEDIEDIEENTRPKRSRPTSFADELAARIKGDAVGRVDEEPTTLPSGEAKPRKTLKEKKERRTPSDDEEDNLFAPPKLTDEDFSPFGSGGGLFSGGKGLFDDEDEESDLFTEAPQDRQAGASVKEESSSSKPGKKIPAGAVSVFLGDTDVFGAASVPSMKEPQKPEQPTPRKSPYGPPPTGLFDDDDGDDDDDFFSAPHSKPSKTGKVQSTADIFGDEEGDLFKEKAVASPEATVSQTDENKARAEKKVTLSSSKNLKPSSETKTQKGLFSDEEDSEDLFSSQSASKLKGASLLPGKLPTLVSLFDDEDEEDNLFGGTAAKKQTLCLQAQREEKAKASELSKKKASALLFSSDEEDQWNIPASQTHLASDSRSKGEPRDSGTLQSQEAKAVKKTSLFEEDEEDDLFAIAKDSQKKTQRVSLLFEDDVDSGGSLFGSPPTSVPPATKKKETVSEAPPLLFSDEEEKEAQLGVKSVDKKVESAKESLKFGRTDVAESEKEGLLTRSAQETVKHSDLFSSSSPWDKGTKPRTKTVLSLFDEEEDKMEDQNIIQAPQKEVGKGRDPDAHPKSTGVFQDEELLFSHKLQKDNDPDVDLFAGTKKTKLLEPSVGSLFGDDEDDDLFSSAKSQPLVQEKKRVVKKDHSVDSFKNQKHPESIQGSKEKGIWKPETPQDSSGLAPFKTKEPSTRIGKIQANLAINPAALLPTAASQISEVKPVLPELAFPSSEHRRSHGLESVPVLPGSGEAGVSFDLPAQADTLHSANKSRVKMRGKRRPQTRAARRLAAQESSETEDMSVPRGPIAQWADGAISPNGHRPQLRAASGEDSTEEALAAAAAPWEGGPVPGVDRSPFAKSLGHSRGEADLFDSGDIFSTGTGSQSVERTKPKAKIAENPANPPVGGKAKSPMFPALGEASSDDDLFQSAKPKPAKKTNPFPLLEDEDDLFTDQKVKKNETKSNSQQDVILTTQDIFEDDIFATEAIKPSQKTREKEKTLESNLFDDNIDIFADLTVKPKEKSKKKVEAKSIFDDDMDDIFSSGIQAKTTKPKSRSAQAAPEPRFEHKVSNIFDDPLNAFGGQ
UniProt Q6ICL3: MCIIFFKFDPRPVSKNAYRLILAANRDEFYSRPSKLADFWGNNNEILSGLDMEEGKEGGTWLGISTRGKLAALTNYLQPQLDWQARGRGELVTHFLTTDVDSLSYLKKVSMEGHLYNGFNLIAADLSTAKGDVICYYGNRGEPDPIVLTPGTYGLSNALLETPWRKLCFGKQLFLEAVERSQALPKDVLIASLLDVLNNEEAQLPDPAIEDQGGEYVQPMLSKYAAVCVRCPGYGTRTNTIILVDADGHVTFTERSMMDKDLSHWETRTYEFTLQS
UniProt Q66K14, whole entry: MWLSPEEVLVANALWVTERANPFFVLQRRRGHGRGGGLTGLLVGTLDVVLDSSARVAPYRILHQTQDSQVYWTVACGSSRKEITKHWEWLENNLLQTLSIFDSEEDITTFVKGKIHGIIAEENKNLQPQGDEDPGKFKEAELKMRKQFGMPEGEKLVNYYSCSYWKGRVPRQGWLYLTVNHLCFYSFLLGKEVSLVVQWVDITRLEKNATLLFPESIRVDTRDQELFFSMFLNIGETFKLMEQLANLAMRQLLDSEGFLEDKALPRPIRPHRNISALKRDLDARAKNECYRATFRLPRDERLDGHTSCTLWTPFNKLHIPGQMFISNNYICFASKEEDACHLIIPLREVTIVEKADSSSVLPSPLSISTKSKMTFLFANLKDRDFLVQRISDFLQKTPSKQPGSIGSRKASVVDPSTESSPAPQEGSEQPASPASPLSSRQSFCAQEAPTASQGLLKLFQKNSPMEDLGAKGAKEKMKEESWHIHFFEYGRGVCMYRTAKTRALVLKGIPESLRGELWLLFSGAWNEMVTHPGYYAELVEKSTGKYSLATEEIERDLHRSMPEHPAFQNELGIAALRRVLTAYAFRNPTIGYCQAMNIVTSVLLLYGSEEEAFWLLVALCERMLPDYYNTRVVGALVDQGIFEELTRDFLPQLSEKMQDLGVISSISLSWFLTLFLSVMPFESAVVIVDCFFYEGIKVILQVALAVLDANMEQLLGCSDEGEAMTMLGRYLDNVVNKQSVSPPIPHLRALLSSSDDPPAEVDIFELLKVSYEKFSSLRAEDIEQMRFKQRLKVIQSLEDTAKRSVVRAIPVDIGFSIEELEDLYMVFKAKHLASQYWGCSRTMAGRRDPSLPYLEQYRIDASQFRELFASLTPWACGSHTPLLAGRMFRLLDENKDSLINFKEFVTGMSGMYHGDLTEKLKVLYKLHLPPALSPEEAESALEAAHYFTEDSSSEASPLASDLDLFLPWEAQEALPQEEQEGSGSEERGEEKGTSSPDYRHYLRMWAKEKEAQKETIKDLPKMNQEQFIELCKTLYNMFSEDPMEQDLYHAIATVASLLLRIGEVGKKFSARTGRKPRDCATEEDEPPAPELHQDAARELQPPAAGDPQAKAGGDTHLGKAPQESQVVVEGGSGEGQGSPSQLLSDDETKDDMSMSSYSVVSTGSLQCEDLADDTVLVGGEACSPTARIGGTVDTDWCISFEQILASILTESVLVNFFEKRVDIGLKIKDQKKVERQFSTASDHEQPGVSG
UniProt Q6AWC2, whole entry: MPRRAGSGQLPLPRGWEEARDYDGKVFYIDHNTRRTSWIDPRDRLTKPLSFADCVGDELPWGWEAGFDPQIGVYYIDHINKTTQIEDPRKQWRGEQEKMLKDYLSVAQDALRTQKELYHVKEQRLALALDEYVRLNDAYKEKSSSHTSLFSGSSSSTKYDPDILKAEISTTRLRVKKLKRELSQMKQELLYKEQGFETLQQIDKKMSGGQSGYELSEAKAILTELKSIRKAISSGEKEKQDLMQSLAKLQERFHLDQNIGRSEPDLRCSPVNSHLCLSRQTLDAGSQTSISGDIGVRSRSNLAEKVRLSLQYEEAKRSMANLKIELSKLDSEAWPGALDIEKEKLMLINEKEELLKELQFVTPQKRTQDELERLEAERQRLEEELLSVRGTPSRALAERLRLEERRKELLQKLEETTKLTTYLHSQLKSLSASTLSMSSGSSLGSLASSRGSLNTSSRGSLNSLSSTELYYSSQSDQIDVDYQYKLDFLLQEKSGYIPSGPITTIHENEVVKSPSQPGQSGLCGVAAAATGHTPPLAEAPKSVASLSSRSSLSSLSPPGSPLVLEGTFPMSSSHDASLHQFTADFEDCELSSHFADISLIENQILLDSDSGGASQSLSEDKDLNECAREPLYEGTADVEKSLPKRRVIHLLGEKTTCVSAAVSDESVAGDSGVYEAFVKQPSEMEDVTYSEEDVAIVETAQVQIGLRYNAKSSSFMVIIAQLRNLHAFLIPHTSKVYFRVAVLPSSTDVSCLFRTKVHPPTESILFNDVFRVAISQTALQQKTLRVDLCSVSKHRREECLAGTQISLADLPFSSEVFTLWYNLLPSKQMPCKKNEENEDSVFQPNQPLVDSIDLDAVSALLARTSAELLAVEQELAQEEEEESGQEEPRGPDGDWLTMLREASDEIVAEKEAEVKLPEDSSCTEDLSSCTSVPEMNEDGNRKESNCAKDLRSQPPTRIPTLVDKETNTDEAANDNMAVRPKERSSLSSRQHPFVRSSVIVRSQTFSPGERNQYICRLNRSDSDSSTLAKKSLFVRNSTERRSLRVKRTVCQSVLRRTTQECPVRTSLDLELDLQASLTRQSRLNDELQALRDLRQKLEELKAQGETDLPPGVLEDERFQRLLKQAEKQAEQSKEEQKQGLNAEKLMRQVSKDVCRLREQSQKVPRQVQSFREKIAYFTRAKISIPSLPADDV
UniProt Q5VVQ6: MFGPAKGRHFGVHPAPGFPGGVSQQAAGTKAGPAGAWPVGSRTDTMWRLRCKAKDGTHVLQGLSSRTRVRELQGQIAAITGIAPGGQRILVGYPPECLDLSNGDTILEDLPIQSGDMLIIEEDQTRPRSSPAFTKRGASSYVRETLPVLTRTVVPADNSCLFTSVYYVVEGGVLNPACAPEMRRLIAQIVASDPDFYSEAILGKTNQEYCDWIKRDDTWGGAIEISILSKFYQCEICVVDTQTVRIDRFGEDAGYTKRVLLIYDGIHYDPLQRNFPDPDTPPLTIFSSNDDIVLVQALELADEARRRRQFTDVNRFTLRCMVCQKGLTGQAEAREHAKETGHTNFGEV
UniProt Q6P1R3: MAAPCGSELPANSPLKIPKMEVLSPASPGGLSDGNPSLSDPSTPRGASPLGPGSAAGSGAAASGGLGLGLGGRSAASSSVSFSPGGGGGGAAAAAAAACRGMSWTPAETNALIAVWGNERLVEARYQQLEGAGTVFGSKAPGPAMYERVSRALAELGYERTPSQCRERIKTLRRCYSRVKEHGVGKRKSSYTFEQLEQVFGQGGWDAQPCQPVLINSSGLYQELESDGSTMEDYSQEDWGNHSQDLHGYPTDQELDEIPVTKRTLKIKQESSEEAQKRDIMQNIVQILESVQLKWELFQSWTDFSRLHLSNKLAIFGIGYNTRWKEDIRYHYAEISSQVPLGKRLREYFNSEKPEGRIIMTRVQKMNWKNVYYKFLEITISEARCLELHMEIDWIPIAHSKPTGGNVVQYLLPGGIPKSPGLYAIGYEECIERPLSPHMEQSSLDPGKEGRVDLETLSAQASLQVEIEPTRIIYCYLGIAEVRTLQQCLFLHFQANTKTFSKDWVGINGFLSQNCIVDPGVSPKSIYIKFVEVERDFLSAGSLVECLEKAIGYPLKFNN

compound: Cc1nc(Nc2ncc(C(=O)Nc3c(C)cccc3Cl)s2)cc(N2CCN(CCO)CC2)n1 [dasatinib]; assay: log2 fold change of tryptic peptide abundance, ligand vs vehicle (limited proteolysis) (log2 ratio); higher = more trypsin-susceptible (destabilized); details: ligand concentration: 5 uM; sample: K562 cleared lysate

Target	log2 fold change
RNF123 (peptide sequence: DILAELTK, peptide start residue: 799) (UniProt Q5XPI4)	0.242
KLHL17 (peptide sequence: QARPAAPMEGAVQLLSR, peptide start residue: 46) (UniProt Q6TDP4)	0.275
DAB2IP (peptide sequence: AVHPNKDNSR, peptide start residue: 200) (UniProt Q5VWQ8)	0.175
UniProt Q6NVV1 (peptide sequence: RMVVPAALKVVR, peptide start residue: 117)	-0.798
SNX30 (peptide sequence: ALPSTGPHSLR, peptide start residue: 8) (UniProt Q5VWJ9)	-0.275
TRIM65 (peptide sequence: TEGRCVCSVCTVRECR, peptide start residue: 108) (UniProt Q6PJ69)	0.58
UniProt Q6NW34 (peptide sequence: ATQETSFDFKCSQSR, peptide start residue: 323)	0.508
NAIF1 (peptide sequence: HLLVNHFNAGVPLAAK, peptide start residue: 29) (UniProt Q69YI7)	-0.218
UniProt Q5VZR4 (peptide sequence: AASEPEAGAMPEKR, peptide start residue: 13)	0.0661
TTC27 (peptide sequence: AEEILRQELEK, peptide start residue: 485) (UniProt Q6P3X3)	0.27
UniProt Q6PF04 (peptide sequence: SNLSLVNQNK, peptide start residue: 139)	-0.304
LRRC8E (peptide sequence: LWHNQIAYVPEHVR, peptide start residue: 637) (UniProt Q6NSJ5)	-0.238
CEP135 (peptide sequence: LFSDLVHTTESLR, peptide start residue: 36) (UniProt Q66GS9)	-0.138
ANKRD40 (peptide sequence: NAASTLTERPCYNR, peptide start residue: 348) (UniProt Q6AI12)	-0.341
FAM219B (peptide sequence: DRAPGAAGPPSGQIGNR, peptide start residue: 25) (UniProt Q5XKK7)	0.232
PHLDB3 (peptide sequence: LQGQQLEALTR, peptide start residue: 101) (UniProt Q6NSJ2)	-0.307
UniProt Q641Q2 (peptide sequence: KQTLCLQAQREEK, peptide start residue: 590)	-0.192
UniProt Q68CJ9 (peptide sequence: YEERVLK, peptide start residue: 239)	0.199
SMYD5 (peptide sequence: LTGKPGQVLPHPELCTVR, peptide start residue: 87) (UniProt Q6GMV2)	0.181

Target	log2 fold change
UniProt Q6PJW8 (peptide sequence: GEVEQLDSR, peptide start residue: 179)	-0.196
TMED8 (peptide sequence: ATGPLEAQALVK, peptide start residue: 84) (UniProt Q6PL24)	-0.0886
UniProt Q6NVV7 (peptide sequence: LVCVGPECSLFYSKR, peptide start residue: 70)	0.25
ARMC6 (peptide sequence: AGVLPLLTGAITHHGHHTDVVR, peptide start residue: 219) (UniProt Q6NXE6)	-0.142
UniProt Q6ICL3 (peptide sequence: LILAANRDEFYSRPSK, peptide start residue: 20)	0.305
TBC1D9B (peptide sequence: YLDNVVNK, peptide start residue: 730) (UniProt Q66K14)	-0.184
UniProt Q64LD2 (peptide sequence: HGSCEDPGGYRLPLAQLGR, peptide start residue: 67)	-0.247
RPGRIP1L (peptide sequence: LHDENILLK, peptide start residue: 57) (UniProt Q68CZ1)	0.439
UniProt Q6EKJ0 (peptide sequence: EQVNDLFSR, peptide start residue: 870)	0.0247
WWC2 (peptide sequence: TTQECPVR, peptide start residue: 1057) (UniProt Q6AWC2)	-0.234
UniProt Q6PK81 (peptide sequence: LHTGEKPYECSECGK, peptide start residue: 212)	-0.111
UniProt Q6NYC8 (peptide sequence: LSPGETPERSLRLAESR, peptide start residue: 194)	-0.539
YOD1 (peptide sequence: AGPAGAWPVGSR, peptide start residue: 31) (UniProt Q5VVQ6)	-0.503
UniProt Q5VWN6 (peptide sequence: ETPLPVSLPSDK, peptide start residue: 1144)	-0.454
CENPP (peptide sequence: ALELDKNR, peptide start residue: 246) (UniProt Q6IPU0)	0.206
ELP2 (peptide sequence: VVVTNLNGHTAR, peptide start residue: 49) (UniProt Q6IA86)	-0.625
MSANTD2 (peptide sequence: LREYFNSEK, peptide start residue: 345) (UniProt Q6P1R3)	0.38
LYPLAL1 (peptide sequence: IIYPTAPPR, peptide start residue: 56) (UniProt Q5VWZ2)	0.0977

Retrieved one by one from the list above:
Target	log2 fold change
UniProt Q6PK81 (peptide sequence: LHTGEKPYECSECGK, peptide start residue: 212)	-0.111
UniProt Q6NYC8 (peptide sequence: LSPGETPERSLRLAESR, peptide start residue: 194)	-0.539
